Laboratory results published in paper doi:10.1101/2020.01.23.917252.
Results are given in words; binding and its absence hold for the method and conditions named. In cells and extracts the contact can be indirect. Some entries that bind do so weakly or less than the wild type.

By UniProt entry, the sequences of proteins in these tests, tags left out. Where a name states a change or a piece, a line headed by the entry shows the natural chain unless it says otherwise.
UniProt P61026: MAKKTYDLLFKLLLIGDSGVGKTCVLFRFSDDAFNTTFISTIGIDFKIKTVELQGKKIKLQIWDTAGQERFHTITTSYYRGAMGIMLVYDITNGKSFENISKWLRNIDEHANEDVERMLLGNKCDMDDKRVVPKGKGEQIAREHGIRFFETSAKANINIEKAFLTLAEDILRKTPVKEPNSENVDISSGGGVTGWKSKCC
UniProt Q15286: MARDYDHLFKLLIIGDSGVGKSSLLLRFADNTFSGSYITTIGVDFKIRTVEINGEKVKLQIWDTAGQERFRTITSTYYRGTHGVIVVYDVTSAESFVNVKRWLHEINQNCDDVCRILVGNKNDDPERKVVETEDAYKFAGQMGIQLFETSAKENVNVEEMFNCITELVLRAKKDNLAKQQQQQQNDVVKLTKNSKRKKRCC
UniProt Q5S007: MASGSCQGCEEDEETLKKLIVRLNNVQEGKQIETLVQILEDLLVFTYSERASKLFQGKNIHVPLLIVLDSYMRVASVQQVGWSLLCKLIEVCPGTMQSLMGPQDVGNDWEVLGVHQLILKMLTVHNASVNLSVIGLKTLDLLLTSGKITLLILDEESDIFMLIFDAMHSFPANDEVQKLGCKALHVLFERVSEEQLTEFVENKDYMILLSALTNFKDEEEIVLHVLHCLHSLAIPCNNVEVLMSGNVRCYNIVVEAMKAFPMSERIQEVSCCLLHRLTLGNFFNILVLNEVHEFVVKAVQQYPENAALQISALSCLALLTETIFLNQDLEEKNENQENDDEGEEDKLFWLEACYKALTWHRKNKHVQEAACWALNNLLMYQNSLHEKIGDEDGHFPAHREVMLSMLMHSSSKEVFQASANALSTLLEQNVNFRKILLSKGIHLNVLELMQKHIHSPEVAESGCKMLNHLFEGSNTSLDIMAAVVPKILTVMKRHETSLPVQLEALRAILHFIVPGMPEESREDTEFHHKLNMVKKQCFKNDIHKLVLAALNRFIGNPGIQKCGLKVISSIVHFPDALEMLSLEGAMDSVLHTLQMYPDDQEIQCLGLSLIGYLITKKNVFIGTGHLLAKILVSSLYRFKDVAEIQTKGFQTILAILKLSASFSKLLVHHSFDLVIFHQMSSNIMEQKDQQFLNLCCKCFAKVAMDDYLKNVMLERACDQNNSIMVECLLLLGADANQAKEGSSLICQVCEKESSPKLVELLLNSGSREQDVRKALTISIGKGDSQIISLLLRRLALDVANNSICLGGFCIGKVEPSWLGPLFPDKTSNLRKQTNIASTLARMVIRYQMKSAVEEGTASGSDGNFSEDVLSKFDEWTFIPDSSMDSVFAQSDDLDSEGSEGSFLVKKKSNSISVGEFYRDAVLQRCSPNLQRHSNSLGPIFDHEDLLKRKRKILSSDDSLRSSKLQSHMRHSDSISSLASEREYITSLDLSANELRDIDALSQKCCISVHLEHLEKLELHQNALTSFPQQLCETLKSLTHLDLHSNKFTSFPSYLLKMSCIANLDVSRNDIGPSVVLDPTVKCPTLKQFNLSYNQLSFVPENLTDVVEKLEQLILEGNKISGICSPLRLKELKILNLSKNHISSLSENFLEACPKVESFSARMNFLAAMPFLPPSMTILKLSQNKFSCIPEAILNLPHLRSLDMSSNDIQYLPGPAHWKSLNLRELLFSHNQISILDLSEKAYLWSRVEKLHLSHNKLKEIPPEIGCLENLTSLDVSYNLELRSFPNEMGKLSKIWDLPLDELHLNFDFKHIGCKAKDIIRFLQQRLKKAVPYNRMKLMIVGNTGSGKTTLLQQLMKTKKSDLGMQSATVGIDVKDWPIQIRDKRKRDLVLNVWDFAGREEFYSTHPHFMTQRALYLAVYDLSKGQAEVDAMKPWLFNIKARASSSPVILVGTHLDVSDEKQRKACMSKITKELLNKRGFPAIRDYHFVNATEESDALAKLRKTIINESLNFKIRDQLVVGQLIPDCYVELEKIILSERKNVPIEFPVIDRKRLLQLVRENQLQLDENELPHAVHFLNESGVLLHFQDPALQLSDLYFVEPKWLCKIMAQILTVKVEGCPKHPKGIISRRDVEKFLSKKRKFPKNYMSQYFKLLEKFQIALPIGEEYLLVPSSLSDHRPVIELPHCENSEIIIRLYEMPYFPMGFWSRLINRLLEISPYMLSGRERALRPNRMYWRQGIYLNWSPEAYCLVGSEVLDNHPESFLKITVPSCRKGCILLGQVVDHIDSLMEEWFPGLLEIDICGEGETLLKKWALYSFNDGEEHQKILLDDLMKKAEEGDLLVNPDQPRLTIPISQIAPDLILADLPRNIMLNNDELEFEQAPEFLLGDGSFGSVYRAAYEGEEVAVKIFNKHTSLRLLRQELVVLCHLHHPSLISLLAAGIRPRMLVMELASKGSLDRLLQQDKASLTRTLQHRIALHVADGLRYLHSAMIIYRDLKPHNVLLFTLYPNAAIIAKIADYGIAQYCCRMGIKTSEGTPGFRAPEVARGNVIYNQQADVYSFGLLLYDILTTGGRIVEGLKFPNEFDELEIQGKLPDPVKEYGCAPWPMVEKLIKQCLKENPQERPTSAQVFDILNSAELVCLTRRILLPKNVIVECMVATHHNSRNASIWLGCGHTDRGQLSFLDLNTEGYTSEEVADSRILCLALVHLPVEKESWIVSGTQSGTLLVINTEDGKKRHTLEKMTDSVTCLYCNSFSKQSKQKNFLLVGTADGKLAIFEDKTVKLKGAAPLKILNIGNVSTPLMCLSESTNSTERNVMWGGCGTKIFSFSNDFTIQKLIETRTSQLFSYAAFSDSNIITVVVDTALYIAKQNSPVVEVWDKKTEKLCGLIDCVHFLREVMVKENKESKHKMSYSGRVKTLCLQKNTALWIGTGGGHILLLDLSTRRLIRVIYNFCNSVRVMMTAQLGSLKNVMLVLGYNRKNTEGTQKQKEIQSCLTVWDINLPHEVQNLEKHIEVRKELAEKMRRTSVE

How the values were obtained:
Assay in all cases: co-IP
2xmyc-RAB10-T73A = 2xmyc-RAB10-T73A (UniProt P61026)
2xmyc-RAB10-WT = 2xmyc-RAB10-WT (UniProt P61026)
2xmyc-RAB35-WT = 2xmyc-RAB35-WT (UniProt Q15286)
3xflag-LRRK2 = 3xflag-LRRK2 (UniProt Q5S007)

B1: JIP4 (C-Jun-amino-terminal kinase-interacting protein 4) (protein, UniProt O60271 1-1321)
chain: MELEDGVVYQEEPGGSGAVMSERVSGLAGSIYREFERLIGRYDEEVVKELMPLVVAVLENLDSVFAQDQEHQVELELLRDDNEQLITQYEREKALRKHAEEKFIEFEDSQEQEKKDLQTRVESLESQTRQLELKAKNYADQISRLEEREAELKKEYNALHQRHTEMIHNYMEHLERTKLHQLSGSDQLESTAHSRIRKERPISLGIFPLPAGDGLLTPDAQKGGETPGSEQWKFQELSQPRSHTSLKVSNSPEPQKAVEQEDELSDVSQGGSKATTPASTANSDVATIPTDTPLKEENEGFVKVTDAPNKSEISKHIEVQVAQETRNVSTGSAENEEKSEVQAIIESTPELDMDKDLSGYKGSSTPTKGIENKAFDRNTESLFEELSSAGSGLIGDVDEGADLLGMGREVENLILENTQLLETKNALNIVKNDLIAKVDELTCEKDVLQGELEAVKQAKLKLEEKNRELEEELRKARAEAEDARQKAKDDDDSDIPTAQRKRFTRVEMARVLMERNQYKERLMELQEAVRWTEMIRASRENPAMQEKKRSSIWQFFSRLFSSSSNTTKKPEPPVNLKYNAPTSHVTPSVKKRSSTLSQLPGDKSKAFDFLSEETEASLASRREQKREQYRQVKAHVQKEDGRVQAFGWSLPQKYKQVTNGQGENKMKNLPVPVYLRPLDEKDTSMKLWCAVGVNLSGGKTRDGGSVVGASVFYKDVAGLDTEGSKQRSASQSSLDKLDQELKEQQKELKNQEELSSLVWICTSTHSATKVLIIDAVQPGNILDSFTVCNSHVLCIASVPGARETDYPAGEDLSESGQVDKASLCGSMTSNSSAETDSLLGGITVVGCSAEGVTGAATSPSTNGASPVMDKPPEMEAENSEVDENVPTAEEATEATEGNAGSAEDTVDISQTGVYTEHVFTDPLGVQIPEDLSPVYQSSNDSDAYKDQISVLPNEQDLVREEAQKMSSLLPTMWLGAQNGCLYVHSSVAQWRKCLHSIKLKDSILSIVHVKGIVLVALADGTLAIFHRGVDGQWDLSNYHLLDLGRPHHSIRCMTVVHDKVWCGYRNKIYVVQPKAMKIEKSFDAHPRKESQVRQLAWVGDGVWVSIRLDSTLRLYHAHTYQHLQDVDIEPYVSKMLGTGKLGFSFVRITALMVSCNRLWVGTGNGVIISIPLTETNKTSGVPGNRPGSVIRVYGDENSDKVTPGTFIPYCSMAHAQLCFHGHRDAVKFFVAVPGQVISPQSSSSGTDLTGDKAGPSAQEPGSQTPLKSMLVISGGEGYIDFRMGDEGGESELLGEDLPLEPSVTKAERSHLIVWQVMYGNE
binding (2xmyc-RAB10-T73A): no binding
binding (2xmyc-RAB10-WT): binds
binding (2xmyc-RAB35-WT): no binding
binding (3xflag-LRRK2): binds
